{"sequences": {"note": "Protein sequences, listed by entry. Tags and fused reporters are not part of them. Residues count along the entry.", "UniProt P70211, residues 26-1447": "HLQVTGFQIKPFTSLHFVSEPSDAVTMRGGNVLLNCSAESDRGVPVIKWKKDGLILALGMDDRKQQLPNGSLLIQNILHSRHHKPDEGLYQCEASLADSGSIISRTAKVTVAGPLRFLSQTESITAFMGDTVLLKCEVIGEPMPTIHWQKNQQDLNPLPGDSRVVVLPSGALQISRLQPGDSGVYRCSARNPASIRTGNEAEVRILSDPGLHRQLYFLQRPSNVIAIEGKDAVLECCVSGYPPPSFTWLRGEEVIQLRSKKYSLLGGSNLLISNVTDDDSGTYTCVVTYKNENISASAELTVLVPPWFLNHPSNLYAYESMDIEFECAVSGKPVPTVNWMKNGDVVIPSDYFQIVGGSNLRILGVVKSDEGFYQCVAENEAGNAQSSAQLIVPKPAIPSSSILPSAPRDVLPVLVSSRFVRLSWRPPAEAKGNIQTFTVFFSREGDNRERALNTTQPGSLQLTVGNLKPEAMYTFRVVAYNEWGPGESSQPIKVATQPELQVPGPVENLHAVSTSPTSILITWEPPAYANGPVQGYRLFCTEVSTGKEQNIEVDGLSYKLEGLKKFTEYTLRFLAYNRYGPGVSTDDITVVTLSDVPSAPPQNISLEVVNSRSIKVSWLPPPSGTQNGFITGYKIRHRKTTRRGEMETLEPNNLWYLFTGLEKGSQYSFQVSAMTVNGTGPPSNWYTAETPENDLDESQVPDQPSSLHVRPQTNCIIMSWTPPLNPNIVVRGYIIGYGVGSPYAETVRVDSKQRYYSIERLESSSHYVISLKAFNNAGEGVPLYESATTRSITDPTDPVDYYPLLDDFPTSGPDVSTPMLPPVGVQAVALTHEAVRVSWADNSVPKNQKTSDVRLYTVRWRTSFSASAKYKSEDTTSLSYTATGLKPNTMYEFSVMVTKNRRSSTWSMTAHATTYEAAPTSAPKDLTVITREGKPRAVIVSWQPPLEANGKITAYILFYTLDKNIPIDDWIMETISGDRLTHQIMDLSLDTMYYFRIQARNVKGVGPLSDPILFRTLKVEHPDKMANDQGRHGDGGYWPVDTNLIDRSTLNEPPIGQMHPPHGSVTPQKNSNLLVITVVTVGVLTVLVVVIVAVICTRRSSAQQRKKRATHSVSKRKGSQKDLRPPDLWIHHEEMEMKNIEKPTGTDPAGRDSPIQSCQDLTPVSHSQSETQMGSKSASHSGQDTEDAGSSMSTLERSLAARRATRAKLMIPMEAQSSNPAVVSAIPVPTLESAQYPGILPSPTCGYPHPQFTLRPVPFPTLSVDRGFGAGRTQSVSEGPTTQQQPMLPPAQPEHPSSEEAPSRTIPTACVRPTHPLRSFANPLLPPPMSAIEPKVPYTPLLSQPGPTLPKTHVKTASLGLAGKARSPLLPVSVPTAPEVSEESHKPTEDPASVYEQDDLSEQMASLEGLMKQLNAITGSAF"}, "source": "paper PMC6002264", "target": "T1, TRIM67 (endogenous, mouse) (mouse (endogenous in embryonic cortex)) (UniProt Q505D9)", "T1 sequence": "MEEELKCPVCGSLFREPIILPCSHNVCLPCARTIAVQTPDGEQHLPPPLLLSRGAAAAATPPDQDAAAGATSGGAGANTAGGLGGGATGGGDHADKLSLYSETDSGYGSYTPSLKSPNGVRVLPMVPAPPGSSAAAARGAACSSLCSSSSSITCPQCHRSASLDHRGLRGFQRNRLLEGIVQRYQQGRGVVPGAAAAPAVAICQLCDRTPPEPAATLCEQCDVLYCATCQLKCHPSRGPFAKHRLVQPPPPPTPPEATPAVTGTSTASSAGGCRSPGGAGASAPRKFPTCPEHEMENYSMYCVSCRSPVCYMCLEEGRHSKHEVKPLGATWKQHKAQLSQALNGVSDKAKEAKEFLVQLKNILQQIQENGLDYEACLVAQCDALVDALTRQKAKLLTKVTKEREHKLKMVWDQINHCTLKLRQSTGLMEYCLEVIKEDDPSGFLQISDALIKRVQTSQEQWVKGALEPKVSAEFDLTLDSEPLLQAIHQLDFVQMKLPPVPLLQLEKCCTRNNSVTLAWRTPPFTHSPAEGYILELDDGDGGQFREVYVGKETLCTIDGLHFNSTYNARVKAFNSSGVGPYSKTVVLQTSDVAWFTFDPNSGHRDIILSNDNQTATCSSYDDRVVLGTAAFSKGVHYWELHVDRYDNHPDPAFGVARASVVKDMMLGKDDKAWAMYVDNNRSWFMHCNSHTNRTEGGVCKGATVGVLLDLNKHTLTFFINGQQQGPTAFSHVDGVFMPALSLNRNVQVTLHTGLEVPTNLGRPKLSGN", "assay": "co-IP; immunoprecipitation with the TRIM67 polyclonal antibody from wild-type mouse embryonic cortical / brain lysate; Trim67-/- lysate as control; blots probed for TRIM9, TRIM67 and DCC", "note": "No constants are given. Whether binding was seen depends on the method and setting. Binding seen in cells or lysates may run through a third protein. Some entries that bind do so weakly or less than the wild type."}
{"substance": "DCC (endogenous, mouse) (from UniProt P70211 26-1447) (receptor)", "values": [{"measurement": "binding", "result": "binds"}]}
